Results published in patent US9671415B2, “Immunoassay for pyrrolidinophenones” (RANDOX LABORATORIES LIMITED, priority 2014, dated 2017).

Tested on: α-PVP antibody
Assay: α-PVP/MDPV ELISA kit validation assay (Example 11)
Assay type: binding
Conditions: N = 20, samples diluted 1:50
Description: A microtitre plate was precoated with α-PVP antibody. α-PVP (antigen), if present in the sample competes with the horseradish peroxidase labelled α-PVP (enzyme labelled antigen) for a limited number of antibody sites on the microtitre plate. After incubation at room temperature to allow a competition reaction to take place, the microtitre plate was washed to remove excess reagents. The enzyme substrate was added. After an incubation period to allow maximum colour development, the colour reaction was stopped by the addition of acid. This produces a colour change from blue to yellow, and the absorbances are read at 450 nm. […]
b) The microtitre plate was gently tapped from side to side for a few seconds. c) The microtitre plate was covered with a plate sealer before incubating for 30 minutes at room temperature (+15° C. to +25° C.) in the dark. d) The plate was inverted and the liquid tapped out liquid. e) The plate was washed 6 times with diluted wash buffer (ensuring all wells were filled), over a 10-15 minute period. […] A colour change from blue to yellow resulted. h) The optical density was measured at 450 nm within 10 minutes of stopping the colour reaction. […]
Equally, pyrrolidinopentiothiophenone and mdpbp were assessed in the same run; and mdppp and α-pyrrolidinopropiophenone were assessed in the same run. […]

## CCCC(C(=O)c1ccccc1)N1CCCC1 (stereo not drawn) [α-PVP, α-Pyrrolidinovalerophenone]
urine
  limit of detection - Urine: 3.1 ng/mL
Whole blood
  limit of detection - Whole Blood: 1.8 ng/mL
